Data as given in PubChem BioAssay AID504791 (Drosophila RNAi Screening Center, 2011).

Screen: 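Factors in Argonaute-based small RNA production and activity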 (primary screen)
System: Drosophila S2-derived reporter cells
Reagents: long dsRNA against Drosophila genes, about 150-250 ng dsRNA per well (siRNA assay); about 80-120 ng (miRNA assay)
Timing: about 5 days (siRNA assay); about 4 days (miRNA assay)
Conditions: copper sulfate induction of reporters: 25 µM (siRNA assay); 200 mM stated (miRNA assay), 1-2 days before reading
Measured: 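Per-well ratio of Renilla over firefly light, expressed relative to that plate's average ratio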
Direction: siRNA reporter hit score: higher = 3 marks a strong hit with raised ratio; -3 a strong hit with lowered ratio
Units: stable assay Renilla, run 1 in luminescence; stable assay firefly, run 1 in luminescence
Rule for the call: 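a well was a first-pass pick when its plate-scaled ratio rose above 1.5 (siRNA assay) or 1.6 (miRNA assay), or dropped below 0.6; a gene counted only if two separate dsRNAs agreed on retest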
In all, the deposit lists about 23,000 reagents; this is an unselected part of those that have a named target and a result. Over the whole deposit, 199 (0.86%) were called active. 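Plate-scaled ratios behind the calls are not deposited; printed light signals are raw; many rows marked increased or decreased are still called inactive.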 Names joined by + are all predicted targets of the reagent. Reagent sequences are not shown.

After knock-down of sncRNA:430e + His2A:CG33859 + His2A:CG33817 + 37 more [DRSC21264] the results were siRNA reporter hit score -3; miRNA reporter change reporter ratio raised past the hit cutoff; stable assay Renilla, run 1 = 5443; stable assay firefly, run 1 = 5.34e5; active. Silencing of CG14453 [DRSC11710] gave: stable assay Renilla, run 1 = 4788; stable assay firefly, run 1 = 3.82e5; inactive. RabX2 [DRSC18234] gave stable assay Renilla, run 1 = 4587; stable assay firefly, run 1 = 3.57e5; inactive. After knock-down of Ubr3 (Ubr3 ubiquitin ligase) [DRSC17987] the results were stable siRNA reporter change reporter ratio raised past the hit cutoff; stable assay Renilla, run 1 = 10108; stable assay firefly, run 1 = 3.34e5; inactive. For Ubr3 (Ubr3 ubiquitin ligase) [DRSC17997] the deposit lists stable assay Renilla, run 1 = 5766; stable assay firefly, run 1 = 2.66e5; inactive. Against 140up (upstream of RpII140) [DRSC12634], the values are stable assay Renilla, run 1 = 8458; stable assay firefly, run 1 = 4.07e5; inactive.

Silencing of Jra (Jun-related antigen) [DRSC07447] gave: stable assay Renilla, run 1 = 9527; stable assay firefly, run 1 = 5.30e5; inactive. CG33640 [DRSC01324] showed stable assay Renilla, run 1 = 4932; stable assay firefly, run 1 = 3.66e5; inactive. nero [DRSC15432] scored stable assay Renilla, run 1 = 7535; stable assay firefly, run 1 = 4.38e5; inactive. Against step (steppke) [DRSC03694] the deposit lists stable assay Renilla, run 1 = 7848; stable assay firefly, run 1 = 6.00e5; inactive. Knock-down of step (steppke) [DRSC03699] gave: siRNA reporter hit score 3; stable assay Renilla, run 1 = 6398; stable assay firefly, run 1 = 4.05e5; inactive. After knock-down of CG1421 [DRSC03707], the screen gave stable assay Renilla, run 1 = 6796; stable assay firefly, run 1 = 3.21e5; inactive.

With knock-down of Rbpn-5 (Rabaptin-5) [DRSC04440], the screen gave stable assay Renilla, run 1 = 27616; stable assay firefly, run 1 = 9.69e5; inactive. Depletion of scyl (scylla) [DRSC11392] came out at: stable assay Renilla, run 1 = 4139; stable assay firefly, run 1 = 2.34e5; inactive. CG9517 (retired record) [DRSC20192] showed stable assay Renilla, run 1 = 5271; stable assay firefly, run 1 = 3.33e5; inactive. Against CG9517 (retired record) [DRSC20193], the values are stable assay Renilla, run 1 = 5947; stable assay firefly, run 1 = 4.17e5; inactive. For Nipped-B [DRSC07815] the deposit lists stable assay Renilla, run 1 = 5998; stable assay firefly, run 1 = 4.29e5; inactive. After knock-down of CG5104 [DRSC11765], the screen gave stable assay Renilla, run 1 = 7294; stable assay firefly, run 1 = 4.33e5; inactive.

For CG46441 [DRSC15561], the entry reads stable assay Renilla, run 1 = 7555; stable assay firefly, run 1 = 2.72e5; inactive.

2 entries from above, ordered by “stable assay Renilla, run 1”, high to low.
CG1421 [DRSC03707] → stable assay Renilla, run 1: 6796; stable assay firefly, run 1: 3.21e5; Call: inactive
step (steppke) [DRSC03699] → siRNA reporter hit score: 3; stable assay Renilla, run 1: 6398; stable assay firefly, run 1: 4.05e5; Call: inactive
